The experiment concerns the target CO-cLUC expressed from CO:CO-cLUC in Arabidopsis (Arabidopsis) (UniProt Q39057). In words: split reporter; in vivo split-LUC in stable transgenic Arabidopsis, own promoters; two-week-old plants sprayed with 2.5 mM D-luciferin, photon counting and imaging during transfer from 22/22°C to 12/22°C long days.

Protein sequences, listed by entry. Tags and fused reporters are not part of them. Lines headed by an entry give the natural chain unless they say otherwise; changes in a name come on top.
UniProt Q39057: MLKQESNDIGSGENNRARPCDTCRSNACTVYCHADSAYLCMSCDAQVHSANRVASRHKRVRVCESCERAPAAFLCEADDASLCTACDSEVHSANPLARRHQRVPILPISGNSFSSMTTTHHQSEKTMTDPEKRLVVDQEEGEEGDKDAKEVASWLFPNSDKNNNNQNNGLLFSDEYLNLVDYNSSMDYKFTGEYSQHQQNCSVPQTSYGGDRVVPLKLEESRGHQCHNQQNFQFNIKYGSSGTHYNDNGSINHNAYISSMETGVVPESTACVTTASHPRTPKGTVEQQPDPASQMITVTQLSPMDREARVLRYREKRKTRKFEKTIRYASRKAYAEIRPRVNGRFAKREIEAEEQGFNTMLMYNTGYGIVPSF
UniProt Q6NLH4: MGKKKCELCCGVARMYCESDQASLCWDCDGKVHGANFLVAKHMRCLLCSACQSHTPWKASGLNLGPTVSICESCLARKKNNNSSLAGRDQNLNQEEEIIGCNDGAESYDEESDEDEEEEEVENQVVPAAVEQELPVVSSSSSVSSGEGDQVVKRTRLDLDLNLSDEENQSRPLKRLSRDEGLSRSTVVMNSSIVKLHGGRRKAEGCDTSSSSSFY

Results are given in words; binding and its absence hold for the method and conditions named. In cells and extracts the contact can be indirect. Binding calls can cover weak binding; strength is not graded here.

For the substance “BBX29-nLUC expressed from BBX29:BBX29-nLUC in Arabidopsis (from UniProt Q6NLH4)”, the binding entry is “binds”.
